Reference: patent publication EP1699833B1, “OLIGOMERS CONTAINING N-ACETYL GLUCOSAMINE” (Council of Scientific and Industrial Research, priority 2003, dated 2005)
At least one compound was matched to its structure with a doubt left.

Amino acid sequences for entries named in this document (tags omitted). Residues count along the entry.
UniProt P00698, 19-147: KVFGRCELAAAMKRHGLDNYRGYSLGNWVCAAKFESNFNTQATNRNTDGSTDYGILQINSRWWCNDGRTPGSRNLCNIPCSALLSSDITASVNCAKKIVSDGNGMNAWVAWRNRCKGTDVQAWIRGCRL

Target: lysozyme (Gallus gallus, UniProt P00698)
Assay: Relative inhibition of lysozyme (lysis of Micrococcus lysodeikticus, absorbance at 450 nm)
Format: biochemical
Conditions: concentration at Imax; Micrococcus lysodeikticus substrate, phosphate buffer pH 6.2, 20° C
Method: This example describes estimation of relative inhibition of lysozyme by polyvalent oligomer containing NAG
1.5 % w/v stock solutions of oligomer containing NAG was prepared in 0.0066 M phosphate buffer pH 6.2 containing 0.0154 m sodium chloride and 0.008 M sodium azide. One milliliter of stock solution containing different ligand concentration was mixed with 1.6 ml of 78 µg1ml of Micrococcus lysodeikticus in a 3-ml capacity lass cuvette. The mixture was incubated for 5 minutes at 20° C. To this mixture 0.1 ml of lysozyme (27 µg1ml) was added and mixed thoroughly. The absorbance at 450 nm (Δ450) was recorded for 30 seconds. A blank reading without the polymer ligand was noted and the change in the absorbance per second was calculated.

## C=CC(=O)OCC1OC(O)C(NC(C)=O)C(O)C1O (stereo not shown) [Ac .NAG, Acryloyl N-Acetyl Glucosamine]
  concentration at maximum inhibition: 14.81 mM
